This is one part of the list. Many values rest on one well or one pass, so single values are uncertain.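 Cells were imaged in 1,536-well plates, and nuclei stained with an antibody against cleaved PARP were counted against all DNA-stained nuclei to give the apoptosis fraction. Screening doses were chosen to leave most cells alive, and resting and induced cleaved-PARP levels differ strongly between cell lines.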
These compounds were tested on MZ2-MEL (assay: cleaved PARP positive nuclei fraction relative to DMSO control; melanoma cells; higher = more apoptosis). Conditions: library dose: low library concentration; 72 h.

SMILES	cleaved PARP positive nuclei fraction
Cc1cn(-c2cc(NC(=O)c3ccc(C)c(Nc4nccc(-c5cccnc5)n4)c3)cc(C(F)(F)F)c2)cn1 [nilotinib] + CNC(=O)c1cc(Oc2ccc(NC(=O)Nc3ccc(Cl)c(C(F)(F)F)c3)cc2)ccn1 [sorafenib] (first compound 0.2 µM, partner dose 0.4 µM)	134%
Cc1ccc(Nc2nccc(N(C)c3ccc4c(C)n(C)nc4c3)n2)cc1S(N)(=O)=O [Pazopanib] + CS(=O)(=O)CCNCc1ccc(-c2ccc3ncnc(Nc4ccc(OCc5cccc(F)c5)c(Cl)c4)c3c2)o1 [lapatinib] (first compound 0.4 µM, partner dose 0.8 µM)	72%
N#CC[C@H](C1CCCC1)n1cc(-c2ncnc3[nH]ccc23)cn1 [ruxolitinib] + C[C@]1(c2nc3c(C(N)=O)cccc3[nH]2)CCCN1 [Veliparib] (first compound 1 µM, partner dose 1.4 µM)	113%
CC[C@]1(O)C[C@H]2CN(CCc3c([nH]c4ccccc34)[C@@](C(=O)OC)(c3cc4c(cc3OC)N(C=O)[C@H]3[C@@](O)(C(=O)OC)[C@H](OC(C)=O)[C@]5(CC)C=CCN6CC[C@]43[C@@H]65)C2)C1 [vincristine] + Cn1cnc2c(F)c(Nc3ccc(Br)cc3Cl)c(C(=O)NOCCO)cc21 [selumetinib] (first compound 0.0001 µM, partner dose 0.015 µM)	125%
O=c1[nH]nc(Sc2ncc([N+](=O)[O-])s2)n1-c1ccc2c(c1)OCCO2 + CC(=O)O[C@@]12CO[C@@H]1C[C@H](O)[C@@]1(C)C(=O)[C@H](O)C3=C(C)[C@@H](OC(=O)[C@H](O)[C@@H](NC(=O)OC(C)(C)C)c4ccccc4)C[C@@](O)([C@@H](OC(=O)c4ccccc4)[C@H]21)C3(C)C [Docetaxel] (first compound 0.2 µM, partner dose 0.0001 µM)	427%
O=c1[nH]nc(Sc2ncc([N+](=O)[O-])s2)n1-c1ccc2c(c1)OCCO2 + CN(c1ncccc1CNc1nc(Nc2ccc3c(c2)CC(=O)N3)ncc1C(F)(F)F)S(C)(=O)=O [PF562271] (first compound 0.2 µM, partner dose 0.08 µM)	177%
COc1cc([C@@H]2c3cc4c(cc3[C@@H](O[C@@H]3O[C@@H]5CO[C@@H](C)O[C@H]5[C@H](O)[C@H]3O)[C@H]3COC(=O)[C@H]23)OCO4)cc(OC)c1O [etoposide] + CN(c1ncccc1CNc1nc(Nc2ccc3c(c2)CC(=O)N3)ncc1C(F)(F)F)S(C)(=O)=O [PF562271] (first compound 0.02 µM, partner dose 0.08 µM)	86.1%
CC[C@]1(O)C[C@H]2CN(CCc3c([nH]c4ccccc34)[C@@](C(=O)OC)(c3cc4c(cc3OC)N(C=O)[C@H]3[C@@](O)(C(=O)OC)[C@H](OC(C)=O)[C@]5(CC)C=CCN6CC[C@]43[C@@H]65)C2)C1 [vincristine] + Cn1c(Nc2ccc(C(F)(F)F)cc2)nc2cc(Oc3ccnc(-c4ncc(C(F)(F)F)[nH]4)c3)ccc21 [CHIR265] (first compound 0.0001 µM, partner dose 0.08 µM)	243%
Cc1cn(-c2cc(NC(=O)c3ccc(C)c(Nc4nccc(-c5cccnc5)n4)c3)cc(C(F)(F)F)c2)cn1 [nilotinib] + CO[C@H]1C[C@@H]2CC[C@@H](C)[C@@](O)(O2)C(=O)C(=O)N2CCCC[C@H]2C(=O)O[C@H]([C@H](C)C[C@@H]2CC[C@@H](OCCO)[C@H](OC)C2)CC(=O)[C@H](C)/C=C(\C)[C@@H](O)[C@@H](OC)C(=O)[C@H](C)C[C@H](C)/C=C/C=C/C=C/1C [everolimus] (first compound 0.2 µM, partner dose 0.02 µM)	90.3%
O=C(/C=C/c1cccnc1)NCCCCC1CCN(C(=O)c2ccccc2)CC1 + CO[C@H]1C[C@@H]2CC[C@@H](C)[C@@](O)(O2)C(=O)C(=O)N2CCCC[C@H]2C(=O)O[C@H]([C@H](C)C[C@@H]2CC[C@@H](OCCO)[C@H](OC)C2)CC(=O)[C@H](C)/C=C(\C)[C@@H](O)[C@@H](OC)C(=O)[C@H](C)C[C@H](C)/C=C/C=C/C=C/1C [everolimus] (first compound 0.01 µM, partner dose 0.02 µM)	355%
COc1cc([C@@H]2c3cc4c(cc3[C@@H](O[C@@H]3O[C@@H]5CO[C@@H](C)O[C@H]5[C@H](O)[C@H]3O)[C@H]3COC(=O)[C@H]23)OCO4)cc(OC)c1O [etoposide] + CO[C@H]1C[C@@H]2CC[C@@H](C)[C@@](O)(O2)C(=O)C(=O)N2CCCC[C@H]2C(=O)O[C@H]([C@H](C)C[C@@H]2CC[C@@H](OCCO)[C@H](OC)C2)CC(=O)[C@H](C)/C=C(\C)[C@@H](O)[C@@H](OC)C(=O)[C@H](C)C[C@H](C)/C=C/C=C/C=C/1C [everolimus] (first compound 0.02 µM, partner dose 0.02 µM)	99.5%
Cc1cn(-c2cc(NC(=O)c3ccc(C)c(Nc4nccc(-c5cccnc5)n4)c3)cc(C(F)(F)F)c2)cn1 [nilotinib] + Nc1cccc2c1CN(C1CCC(=O)NC1=O)C2=O [lenalidomide] (first compound 0.2 µM, partner dose 1 µM)	176%
Cc1ccc(Nc2nccc(N(C)c3ccc4c(C)n(C)nc4c3)n2)cc1S(N)(=O)=O [Pazopanib] + CNC(=O)c1cc(Oc2ccc(NC(=O)Nc3ccc(Cl)c(C(F)(F)F)c3)cc2)ccn1 [sorafenib] (first compound 0.4 µM, partner dose 0.4 µM)	40.8%

A second format for some results above:
SMILES | cleaved PARP positive nuclei fraction
N#CC[C@H](C1CCCC1)n1cc(-c2ncnc3[nH]ccc23)cn1 [ruxolitinib] + C[C@]1(c2nc3c(C(N)=O)cccc3[nH]2)CCCN1 [Veliparib] (first compound 1 µM, partner dose 1.4 µM) | 113%
Cc1ccc(Nc2nccc(N(C)c3ccc4c(C)n(C)nc4c3)n2)cc1S(N)(=O)=O [Pazopanib] + CNC(=O)c1cc(Oc2ccc(NC(=O)Nc3ccc(Cl)c(C(F)(F)F)c3)cc2)ccn1 [sorafenib] (first compound 0.4 µM, partner dose 0.4 µM) | 40.8%
